Three compounds from US20220017495A1, “CONJUGATES OF BIVALENT EVANS BLUE DYE DERIVATIVES AND METHODS OF USE” (THE UNITED STATES OF AMERICA, AS REPRESENTED BY THE …, priority 2019, published 2022) can be followed below.

The data set can be described thus: Fluorescence lymphatic imaging after foot pad injection. In kind it is in vivo, mice. The settings on record: for Time window between detection of the popliteal LN and the sciatic LN: 10 μg into foot pad.

Structures can show the parent of a compound that is named as a salt.

For the compound `Cc1cc(-c2ccc(N=Nc3ccc4c(S(=O)(=O)O)cc(S(=O)(=O)O)c(N)c4c3O)c(C)c2)ccc1N=Nc1ccc2c(S(=O)(=O)O)cc(S(=O)(=O)O)c(N)c2c1O` [EB, tetrasodium salt of 6,6′-{(3,3′-dimethyl[1,1′-biphenyl]-4,4′-diyl)bis[diazene-2,1-diyl]}bis(4-amino-5-hydroxynaphthalene-1,3-disulfonate)], the “Time to illuminate the sentinel and secondary LNs” value is recorded as not above 10 min; the “Time window between detection of the popliteal LN and the sciatic LN” value is recorded as “around 10 min”.
`Cc1cc(-c2ccc(NC(=O)CN3CCN(CC(=O)O)CCN(CC(=O)Nc4ccc(-c5ccc(N=Nc6ccc7c(S(=O)(=O)O)cc(S(=O)(=O)O)c(N)c7c6O)c(C)c5)cc4C)CC3)c(C)c2)ccc1N=Nc1ccc2c(S(=O)(=O)O)cc(S(=O)(=O)O)c(N)c2c1O` [N(tEB)2]: the “Time at which the popliteal LN was visualized” value was 30 min p.i; the “Time at which the sciatic LN were illuminated” value is “around 90 min p.i”; the “Time window between detection of the popliteal LN and the sciatic LN” value was “up to 60 min”.
Turning to `Cc1cc(-c2ccc(NC(=O)CN3CCN(CC(=O)O)CCN(CC(=O)O)CC3)c(C)c2)ccc1N=Nc1ccc2c(S(=O)(=O)O)cc(S(=O)(=O)O)c(N)c2c1O` [NtEB], the “Time window between detection of the popliteal LN and the sciatic LN” value was “around 10 min”.
